Data on nine molecules can be found in the supplement of paper PMC8007513.

The structures appear in SMILES notation. Some of the results follow. Many values rest on one well or one pass, so single values are uncertain.

The test system of this test is Saccharomyces cerevisiae BY4743. As to the kind of experiment: growth (OD600) with compound + IPBC relative to untreated control; higher = less growth inhibition. The settings on record: compound concentration: 133 uM; IPBC concentration: 0.5 ug/ml; 20 h. As for the experimental part: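 NMCCC compounds (133 uM) combined with IPBC (0.5 ug/ml) against Saccharomyces cerevisiae BY4743 in YPD, 96-well plates. Growth was read as OD600 at 20 h and expressed as % of the untreated control. Single pass.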
Regarding `CCCC(=O)N(c1nc(C)c(C(C)=O)s1)C1CC1` + CCCCNC(=O)OCC#CI [3-iodo-2-propynyl butylcarbamate (IPBC)], the growth was determined as 102%.
In the case of `CCCOC(=O)c1cccc(Nc2nc(C(=O)OCC)nc3ccccc23)c1` + CCCCNC(=O)OCC#CI [3-iodo-2-propynyl butylcarbamate (IPBC)], the growth is 85.4%.
The same measure for `O=C(CSc1nc2ccc[nH]c-2n1)Nc1nccs1` + CCCCNC(=O)OCC#CI [3-iodo-2-propynyl butylcarbamate (IPBC)]: 82.7%.
Under `NC(=O)c1cc(Cl)ccc1OCc1nc(-c2ccsc2)no1` + CCCCNC(=O)OCC#CI [3-iodo-2-propynyl butylcarbamate (IPBC)] stands 109%; under `Oc1cccc2ccc(/C=C/c3ccc(Br)o3)nc12` + CCCCNC(=O)OCC#CI [3-iodo-2-propynyl butylcarbamate (IPBC)], 94.9%.
Consider `CCCc1nnc(CSc2nnc(-c3ccc(NC(C)=O)cc3)o2)o1` + CCCCNC(=O)OCC#CI [3-iodo-2-propynyl butylcarbamate (IPBC)], for which the growth was 92.5%.
The same measure for `Cc1cc(C)n(CCC(=O)NCCN2CCN(c3cc(Cl)ccc3C)CC2)n1` + CCCCNC(=O)OCC#CI [3-iodo-2-propynyl butylcarbamate (IPBC)]: 98.7%; for `O=C(Cc1cn2ccccc2n1)Nc1cccc(F)c1` + CCCCNC(=O)OCC#CI [3-iodo-2-propynyl butylcarbamate (IPBC)]: 107%; for `Cn1cc(CCNC(=O)NC2CCOc3ccccc32)cn1` (centres undefined) + CCCCNC(=O)OCC#CI [3-iodo-2-propynyl butylcarbamate (IPBC)]: 105%.
